Source: article PMC5601996
No constants are given. Whether binding was seen depends on the method and setting. In cells and extracts the contact can be indirect. Some entries that bind do so weakly or less than the wild type.

The chains behind the UniProt entries cited, without tags or fusion partners.
UniProt O00327: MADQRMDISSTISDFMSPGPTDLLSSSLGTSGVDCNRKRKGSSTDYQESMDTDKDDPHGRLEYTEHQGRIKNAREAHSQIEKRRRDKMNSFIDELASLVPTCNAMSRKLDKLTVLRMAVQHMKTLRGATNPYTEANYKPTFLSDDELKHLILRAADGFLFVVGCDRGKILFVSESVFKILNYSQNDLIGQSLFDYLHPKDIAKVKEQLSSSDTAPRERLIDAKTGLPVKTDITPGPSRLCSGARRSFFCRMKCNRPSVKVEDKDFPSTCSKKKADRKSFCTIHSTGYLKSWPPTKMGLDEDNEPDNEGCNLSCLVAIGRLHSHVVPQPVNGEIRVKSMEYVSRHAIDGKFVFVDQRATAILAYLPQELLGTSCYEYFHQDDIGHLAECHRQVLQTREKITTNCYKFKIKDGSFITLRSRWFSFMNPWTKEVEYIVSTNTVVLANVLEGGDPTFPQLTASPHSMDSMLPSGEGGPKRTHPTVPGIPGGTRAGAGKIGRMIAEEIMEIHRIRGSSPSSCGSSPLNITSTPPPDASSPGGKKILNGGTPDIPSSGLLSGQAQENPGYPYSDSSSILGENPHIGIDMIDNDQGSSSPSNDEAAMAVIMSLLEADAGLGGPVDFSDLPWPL
UniProt Q9H9Q2: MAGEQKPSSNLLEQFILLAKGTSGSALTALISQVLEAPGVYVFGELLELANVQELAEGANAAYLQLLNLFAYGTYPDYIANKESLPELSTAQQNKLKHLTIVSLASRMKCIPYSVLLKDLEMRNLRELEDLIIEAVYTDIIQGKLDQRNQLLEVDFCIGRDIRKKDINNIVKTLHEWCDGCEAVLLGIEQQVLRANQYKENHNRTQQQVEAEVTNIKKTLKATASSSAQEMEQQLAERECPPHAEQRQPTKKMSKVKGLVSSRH

Key:
[1] = target: FLAG epitope-tagged BMAL1 (UniProt O00327); assay: co-IP; HEK293T transfected with FLAG-tagged clock proteins; nuclear extracts (1000 ug) with anti-FLAG M2 or anti-COPS7B antibody 90 min at 4°C, protein A agarose 1 hr; one wash 50 mM Tris, 500 mM NaCl, 1% NP-40, two washes 50 mM Tris, 120 mM NaCl, 0.5% NP-40; Western blot probed with the opposite antibody
[2] = target: COPS7B, a subunit of the COP9 signalosome (human (endogenous in HEK293T)) (UniProt Q9H9Q2); assay: as above
[3] = target: FLAG epitope-tagged BMAL1 (in U2OS cells) (UniProt O00327); assay: co-IP; U2OS cells (rhythmic) transfected with FLAG-tagged clock proteins, synchronized by dexamethasone; nuclear extracts (1000 ug) with antibody 90 min at 4°C, protein A agarose; one high-salt wash (500 mM NaCl), two low-salt washes (120 mM NaCl); Western blot

## COPS7B, a subunit of the COP9 signalosome (from UniProt Q9H9Q2 1-264)
[1]
  binding: binds

## FLAG epitope-tagged BMAL1 (from UniProt O00327 1-626)
[2]
  binding: binds

## COPS7B, a subunit of the COP9 signalosome (in U2OS cells) (from UniProt Q9H9Q2 1-264)
[3]
  binding: binds
